Here are results for 167 variants from the RNAGym collection of RNA variant scans (doi:10.1126/science.aae0568).

This sample is rich in variants without activity.

The labels stand for the following.
B1: tRNA (parent)
chain: GUUCCGUUGGCGUAAUGGUAACGCGUCUCCCUCCUAAGGAGAAGACUGCGGGUUCGAGUCCCGUACGGAACG

This data set covers variants of B1. As to the kind of experiment: yeast fitness relative to wild type (ratio to wild type); higher = fitter; tRNA-Arg(CCU), competitive growth, 37 C, YPD. In a few lines: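 Amplicons of the tRNA-Arg(CCU) gene were sequenced, 100-nucleotide paired-end, from the start population and from each end population of a pooled yeast competition. The competition, in six parallel replicates, lasted 24 hours in YPD at 37°C. Fitness relative to wild type was calculated from changes in genotype frequencies. Genotypes had to have ≥ 100 starting reads, and estimates < 0.5 were set to 0.5.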
A15C G25C C29U U35C A43U: the yeast fitness was not above 0.5.

Take C27G C29U A37G A45G C60A: the yeast fitness is not above 0.5.

Take C33G C34U C66G: the yeast fitness was not above 0.5.

For G9C A15U U28G U54C C55G A69U, the yeast fitness is not above 0.5.

Turning to G17A G38C G48C U53A C61U, the yeast fitness is not above 0.5.

Turning to U16C A37C C60U, the yeast fitness is not above 0.5.

Consider C5U C24U A69C, for which the yeast fitness amounted to 0.777.

G6A G9C C24U C30G C31A A43G A65C: the yeast fitness was not above 0.5.

As for U19C C27A C31G A43G, the yeast fitness was not above 0.5.

For the variant U7C U32C C33G A70G, the yeast fitness is not above 0.5.

C5A A15U C31G G44A U47A G51C C66U: the yeast fitness is not above 0.5.

As for C30U G56A A69C, the yeast fitness was determined as 0.566.

Turning to C5A C29U G48C U53C, the yeast fitness was not above 0.5.

As for G6A A14G G18A A42C C62A, the yeast fitness was not above 0.5.

On to U7C G10A G50C, for which the yeast fitness is not above 0.5.

For C11G C31G, the yeast fitness is 0.555.

Turning to C5G C33G A36U G39A A40G G63U, the yeast fitness is not above 0.5.

With G18A C24G G38C C66A, the yeast fitness is not above 0.5.

As to C4G U28A C29G G51A G56A G67C, the yeast fitness was not above 0.5.

As to C11G G50U A65U, the yeast fitness was not above 0.5.

Turning to A43C C46U C62U G63C C66U, the yeast fitness was not above 0.5.

For G12A A21G C46G G51A G67C, the yeast fitness is not above 0.5.

For C4U U7C A15C U16G, the yeast fitness was not above 0.5.

On to U3A G17A C22U A43G C55A, for which the yeast fitness was not above 0.5.

On to C33U C34U G58C G63A, for which the yeast fitness is not above 0.5.

Take C33U C55G: the yeast fitness was not above 0.5.

Regarding G18A A21U U26C, the yeast fitness is not above 0.5.

In the case of G17C C27U C34U A42U A69U, the yeast fitness was not above 0.5.

On to A42U C61U G68C, for which the yeast fitness was not above 0.5.

Regarding A20G A42U C62G G63A, the yeast fitness was not above 0.5.

With U3C U13A C22G C31G C61A, the yeast fitness was not above 0.5.

In the case of U8A C29G A40G G63A, the yeast fitness was not above 0.5.

G17A C46G U54C: the yeast fitness was 0.562.

For the variant G18C C30U A45G, the yeast fitness was not above 0.5.

Consider C22A G23A C33U C34G G68C, for which the yeast fitness is not above 0.5.

As to U26C C33G A42C C49G G58C C62G, the yeast fitness was determined as 0.616.

Turning to U26C A42G G67U, the yeast fitness is 0.647.

With C11A A15U A20C C34G A65U, the yeast fitness was not above 0.5.

Consider A40G C49G U59G G67C, for which the yeast fitness stood at 0.706.

C22U G25C: the yeast fitness was 0.697.

Consider U8A C24U U28C A40C, for which the yeast fitness was not above 0.5.

With C24U U28C G56A C62G, the yeast fitness was not above 0.5.

For G10C G25C U26C A70C, the yeast fitness is not above 0.5.

Take A15C C55A G58C: the yeast fitness was not above 0.5.

Turning to C24U G25C C31A C33G, the yeast fitness is not above 0.5.

In the case of G6A C11G A21G C27G C29U U35G C62U, the yeast fitness is not above 0.5.

Take C55U C61A A70U: the yeast fitness was not above 0.5.

As for G17A C22A U64A, the yeast fitness was not above 0.5.

On to C5U A15G U28A C34G C46A, for which the yeast fitness is not above 0.5.

Consider G18A C27U C31A, for which the yeast fitness is not above 0.5.

Regarding A20C G44C G48A G51A, the yeast fitness was not above 0.5.

With A14G A15G C61U A69G, the yeast fitness was not above 0.5.

C22G C29A A42C G63C: the yeast fitness was not above 0.5.

Consider U2G C11G A20G C24U C31G G58C C66G, for which the yeast fitness was not above 0.5.

Consider C5U C11U C33G A43C A69U, for which the yeast fitness was not above 0.5.

Regarding C22G C31U A43U G51A C61A, the yeast fitness is not above 0.5.

Consider C5G G6C U26G, for which the yeast fitness is not above 0.5.

As for U2G G18A C60U C61A G67C, the yeast fitness was not above 0.5.

Turning to U3C A45G U54A C61U, the yeast fitness was not above 0.5.

On to C31U U35C U53A, for which the yeast fitness was not above 0.5.

On to U19C C55A C66A, for which the yeast fitness was not above 0.5.

On to G10A A15C U16C A37C G50A U53A C61U, for which the yeast fitness is not above 0.5.

On to A15C A45C A65G, for which the yeast fitness is not above 0.5.

G23A C24G C29U G41A A69U: the yeast fitness was not above 0.5.

As to G23A C33U G41A C60G, the yeast fitness was not above 0.5.

Regarding C30G C34U C46U C61A, the yeast fitness is not above 0.5.

Consider A21G C22U C46A A69U, for which the yeast fitness was not above 0.5.

Regarding A37G C60U A65G, the yeast fitness is not above 0.5.

In the case of C11U A20G C24G C49U C62A, the yeast fitness is not above 0.5.

In the case of A20G G38C G41C A65G, the yeast fitness was not above 0.5.

As to A15C C30U C31G A42U A57C G67U, the yeast fitness is not above 0.5.

As to U3G G9U G18A A20G A36G, the yeast fitness was not above 0.5.

Consider C31U G41C, for which the yeast fitness was 0.796.

A45G A57U C60U: the yeast fitness was not above 0.5.

Regarding C11U U19A U59A C60U, the yeast fitness is not above 0.5.

As to C5U G6C A15C G23C C31A A36U A70C, the yeast fitness was not above 0.5.

For A20U C29U C55G A65G, the yeast fitness was not above 0.5.

With U2G U7G U16C C62U A65C, the yeast fitness is not above 0.5.

C31A A57C C60G: the yeast fitness was not above 0.5.

On to U32C C55U A69C, for which the yeast fitness was 0.63.

With C5A A45G U47A C62A G67U, the yeast fitness is not above 0.5.

As to A42U G52A G67U, the yeast fitness came to 0.783.

On to A37G C55U A65G, for which the yeast fitness was not above 0.5.

On to C11G U26A U54C, for which the yeast fitness is not above 0.5.

G9A A20G C27G A40G: the yeast fitness is not above 0.5.

In the case of C22A C49U G51C G63A, the yeast fitness is not above 0.5.

Turning to A21G G23A A57C A65C A70C, the yeast fitness was not above 0.5.

Take C4A U7A U13A C30A: the yeast fitness is not above 0.5.

For C11G A14U C22A C29G C34A, the yeast fitness is not above 0.5.

As for C24G C30G G39A G51A, the yeast fitness is not above 0.5.

For the variant C29G G63A, the yeast fitness is 0.646.

Turning to C27A G39C C55U A65C, the yeast fitness was not above 0.5.

With A20C G44C A57U, the yeast fitness is not above 0.5.

Turning to G10A C30U C34U A42G A57U, the yeast fitness is not above 0.5.

In the case of C30U G38C C55U U59A, the yeast fitness was not above 0.5.

Consider U2G U28A C30U C66U A69U, for which the yeast fitness was not above 0.5.

As for C5A A20C C24A G67U, the yeast fitness is not above 0.5.

Consider C5A C27A U28G G38A C46G C62U, for which the yeast fitness was not above 0.5.

G6A C11A U19A G56A A69U: the yeast fitness is not above 0.5.

With A37G G41C A43U A57U, the yeast fitness is not above 0.5.

Regarding G10C C66G, the yeast fitness turned out to be 0.515.

Regarding C11A C30A U64A, the yeast fitness is not above 0.5.

Turning to U8A C27A A37U C62G, the yeast fitness is not above 0.5.

For the variant G12A G17A C29U U54A G56A, the yeast fitness is not above 0.5.

In the case of G12C A36U C55U A69C, the yeast fitness was not above 0.5.

Regarding U2C G39C G48C C61U, the yeast fitness was not above 0.5.

Consider U16A G17A C66U, for which the yeast fitness was not above 0.5.

On to U16C U47C C60U C62A, for which the yeast fitness was not above 0.5.

C4G G6A C24G G39C: the yeast fitness is not above 0.5.

As for C24U G48A G51A, the yeast fitness was determined as 0.665.

As to A14G G39C C55U, the yeast fitness was not above 0.5.

As for U2C G6A A42C C66U, the yeast fitness was not above 0.5.

Consider U2A A14U A21G, for which the yeast fitness was not above 0.5.

A14C C29G: the yeast fitness was not above 0.5.

As for G9C C30U A37G C55G, the yeast fitness was not above 0.5.

For C34A A40G C66A, the yeast fitness was not above 0.5.

As for G48A U59C G63A, the yeast fitness is not above 0.5.

On to G12C A14C A15G C60G, for which the yeast fitness was not above 0.5.

For U7C C30U C34A C46U A69C, the yeast fitness is not above 0.5.

With C11A C27G C31G A36C G63C, the yeast fitness is not above 0.5.

In the case of C11A A42U A65G C66G G68A, the yeast fitness is not above 0.5.

As for C27G C31A A37C, the yeast fitness is not above 0.5.

As to A36C U53C C62U, the yeast fitness is not above 0.5.

As for C4U U7A U32C, the yeast fitness was not above 0.5.

Turning to C5U U47C, the yeast fitness came out at 0.96.

Turning to G6A G44C G68A, the yeast fitness was not above 0.5.

On to U13G C22A U26A C27G G48A, for which the yeast fitness was not above 0.5.

For the variant G6A C27G, the yeast fitness was 0.758.

As for U19A C33U C61U, the yeast fitness is not above 0.5.

Take C4A U54G A65U: the yeast fitness is not above 0.5.

In the case of G6A U47A A57U, the yeast fitness was not above 0.5.

Regarding A15C A20U C30A C34U G39A C55G, the yeast fitness was not above 0.5.

Consider U13A C27A C61U C66U, for which the yeast fitness was not above 0.5.

As for U19A C29G G48A C61A, the yeast fitness worked out at 0.683.

As to G12A U13A C29G A43G, the yeast fitness is not above 0.5.

Turning to C4G C11U C29G G68A, the yeast fitness is not above 0.5.

For G9A C34G C66A, the yeast fitness is not above 0.5.

In the case of A20U G23A G63A A70U, the yeast fitness is not above 0.5.

On to U7A A42U A57C C61U A65U, for which the yeast fitness is not above 0.5.

With C24U A37G G39A G48C, the yeast fitness is not above 0.5.

With U54A C62U G68A, the yeast fitness worked out at 0.504.

With G6C U7C A14U A15C U26C G48A G63A C66U A69C, the yeast fitness is not above 0.5.

Take C4G G38C C60U U64A: the yeast fitness was not above 0.5.

With G12C A14G G18A C33G A65U, the yeast fitness was not above 0.5.

Turning to U2C C29A C31A A40U U47A C49U, the yeast fitness is not above 0.5.

As to C11G G12A C24A C30G G44C C61G, the yeast fitness is not above 0.5.

For C24U U53A C66A, the yeast fitness is not above 0.5.

As for C4A A21C C62G, the yeast fitness was not above 0.5.

Take A15G G25C A42G C66G: the yeast fitness was not above 0.5.

Turning to C4U G52A U53A C62U, the yeast fitness is not above 0.5.

Regarding U7A C34U G38C, the yeast fitness was not above 0.5.

Regarding U7C C34G U35A G63C, the yeast fitness was not above 0.5.

U32A G41C A43C: the yeast fitness was not above 0.5.

On to U7G A42G, for which the yeast fitness came to 0.837.

For the variant A57C C61A A70G, the yeast fitness is not above 0.5.

As for U28C U35A, the yeast fitness was determined as 0.578.

For the variant C11U G39A G52C C55G, the yeast fitness is not above 0.5.

As for A21G C31U C33U U59A, the yeast fitness was not above 0.5.

Take G10A U19C G48A C49G: the yeast fitness came to 0.56.

Regarding C22A G25A C29U G56C, the yeast fitness is not above 0.5.

C27G C49G U59C: the yeast fitness was not above 0.5.

On to G18C G23A G25C A37G A43C U54C C55G G68A, for which the yeast fitness is not above 0.5.

For the variant C11U C29U G67A, the yeast fitness turned out to be 0.57.

Consider C4G C22G C33U A36C A40U A57C U64A, for which the yeast fitness was not above 0.5.

As for G6A C11U A43U C62G C66A A69C, the yeast fitness was not above 0.5.

As for U28A G67C, the yeast fitness amounted to 0.774.

For G25A C60A A69G, the yeast fitness was not above 0.5.
